These are yes or no findings as the source states them, for the method shown. In cells and extracts the contact can be indirect. Here binding means that the protein was enriched with, or labelled near, the bait; the list need not be complete.
Molecular target: Flag-PKM2 (pyruvate kinase M2 isoform), expressed in U251 cells (UniProt P14618)
Test: affinity purification with mass spectrometry; Flag-PKM2 immunoprecipitated with Flag beads from U251 cells treated with or without etoposide for 1 h; mass spectrometry of PKM2-associated proteins

Amino acid sequences for entries named in this document (tags omitted).
UniProt P14618: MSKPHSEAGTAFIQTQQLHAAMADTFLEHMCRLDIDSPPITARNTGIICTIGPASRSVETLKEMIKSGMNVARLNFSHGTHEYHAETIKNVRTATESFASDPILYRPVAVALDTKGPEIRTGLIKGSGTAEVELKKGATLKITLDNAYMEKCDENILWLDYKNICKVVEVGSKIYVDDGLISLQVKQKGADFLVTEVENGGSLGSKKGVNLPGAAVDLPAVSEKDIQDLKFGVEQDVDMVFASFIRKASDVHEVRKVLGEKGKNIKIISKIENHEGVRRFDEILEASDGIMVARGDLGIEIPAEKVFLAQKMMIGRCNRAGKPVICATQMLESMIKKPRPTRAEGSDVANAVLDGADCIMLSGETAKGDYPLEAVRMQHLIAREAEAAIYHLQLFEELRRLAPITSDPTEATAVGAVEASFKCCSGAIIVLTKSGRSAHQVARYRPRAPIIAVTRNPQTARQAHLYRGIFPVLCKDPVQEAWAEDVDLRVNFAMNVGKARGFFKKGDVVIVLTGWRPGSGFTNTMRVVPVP
UniProt Q9Y5B9: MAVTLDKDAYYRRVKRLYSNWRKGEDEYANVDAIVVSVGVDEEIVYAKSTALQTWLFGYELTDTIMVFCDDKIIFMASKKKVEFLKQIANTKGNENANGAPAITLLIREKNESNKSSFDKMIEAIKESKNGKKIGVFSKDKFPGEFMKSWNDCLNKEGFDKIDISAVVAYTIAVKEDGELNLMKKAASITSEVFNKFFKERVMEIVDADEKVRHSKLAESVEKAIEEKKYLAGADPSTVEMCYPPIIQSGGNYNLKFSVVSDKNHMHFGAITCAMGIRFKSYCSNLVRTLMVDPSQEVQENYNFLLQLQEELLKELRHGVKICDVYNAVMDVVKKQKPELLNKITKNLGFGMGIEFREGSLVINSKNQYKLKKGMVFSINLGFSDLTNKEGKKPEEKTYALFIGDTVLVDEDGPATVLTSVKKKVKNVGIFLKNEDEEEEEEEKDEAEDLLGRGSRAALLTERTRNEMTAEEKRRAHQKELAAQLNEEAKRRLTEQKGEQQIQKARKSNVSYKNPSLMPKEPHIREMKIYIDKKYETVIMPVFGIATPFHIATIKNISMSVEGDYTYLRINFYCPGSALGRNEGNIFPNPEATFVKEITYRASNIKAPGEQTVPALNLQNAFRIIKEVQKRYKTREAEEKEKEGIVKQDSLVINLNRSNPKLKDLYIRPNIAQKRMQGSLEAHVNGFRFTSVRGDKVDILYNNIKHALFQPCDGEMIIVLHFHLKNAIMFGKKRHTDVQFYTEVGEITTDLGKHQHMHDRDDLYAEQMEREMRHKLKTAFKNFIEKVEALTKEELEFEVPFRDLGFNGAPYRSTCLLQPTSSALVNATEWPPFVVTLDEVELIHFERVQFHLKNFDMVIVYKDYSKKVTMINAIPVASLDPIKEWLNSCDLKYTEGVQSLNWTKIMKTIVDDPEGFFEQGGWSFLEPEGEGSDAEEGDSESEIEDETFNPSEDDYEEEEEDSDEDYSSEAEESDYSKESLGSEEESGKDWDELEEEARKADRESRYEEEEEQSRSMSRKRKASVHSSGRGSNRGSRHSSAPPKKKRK

Substance: SPT16, subunit of the FACT complex, endogenous in U251 cells (from UniProt Q9Y5B9 1-1047)
- binding: binds
